Measurements as given in article PMC7877178.
These are yes or no findings as the source states them, for the method shown. In cells and extracts the contact can be indirect. Some results given as binding are weak or reduced against the parent protein; the word gives no strength. For part of these data: Sequences can lack the tags named with a protein.

Amino acid sequences for entries named in this document (tags omitted). A change or cut given only in a name is not applied to a line headed by its entry.
UniProt Q9BVS4: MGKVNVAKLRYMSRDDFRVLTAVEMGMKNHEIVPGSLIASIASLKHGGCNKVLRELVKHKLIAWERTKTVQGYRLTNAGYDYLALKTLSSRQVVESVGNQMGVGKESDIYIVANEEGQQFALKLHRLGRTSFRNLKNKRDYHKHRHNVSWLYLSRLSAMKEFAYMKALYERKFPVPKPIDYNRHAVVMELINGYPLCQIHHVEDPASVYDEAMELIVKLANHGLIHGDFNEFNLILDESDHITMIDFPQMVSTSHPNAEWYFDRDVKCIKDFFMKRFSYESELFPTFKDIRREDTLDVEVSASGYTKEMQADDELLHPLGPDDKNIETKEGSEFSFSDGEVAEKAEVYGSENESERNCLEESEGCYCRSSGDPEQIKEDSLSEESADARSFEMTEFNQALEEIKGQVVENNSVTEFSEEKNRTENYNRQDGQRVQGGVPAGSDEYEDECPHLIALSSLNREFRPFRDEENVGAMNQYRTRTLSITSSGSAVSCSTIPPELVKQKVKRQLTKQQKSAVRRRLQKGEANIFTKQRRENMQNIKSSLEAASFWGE

Experiments:
[1] = target: T1, FLAG-tagged BYSL (Bystin) (human) (UniProt Q13895); assay: co-IP; HEK293T cells transfected with FLAG-BYSL plasmid; lysate (1 mg total protein, precleared) immunoprecipitated with magnetic FLAG beads at 4 °C overnight; Western blot
T1 sequence: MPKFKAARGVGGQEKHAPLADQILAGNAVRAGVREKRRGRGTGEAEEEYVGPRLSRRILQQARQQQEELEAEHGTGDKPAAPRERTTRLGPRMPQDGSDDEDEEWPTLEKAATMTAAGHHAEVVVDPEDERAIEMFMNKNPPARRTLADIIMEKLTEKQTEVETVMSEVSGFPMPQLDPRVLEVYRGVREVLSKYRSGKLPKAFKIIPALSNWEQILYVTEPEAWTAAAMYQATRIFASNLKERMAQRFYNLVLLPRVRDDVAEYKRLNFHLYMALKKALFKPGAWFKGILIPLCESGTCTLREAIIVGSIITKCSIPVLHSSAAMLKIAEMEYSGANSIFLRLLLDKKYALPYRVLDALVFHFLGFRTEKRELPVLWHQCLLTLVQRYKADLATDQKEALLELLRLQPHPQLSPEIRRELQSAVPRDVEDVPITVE

[2] = target: T2, BYSL (Bystin), endogenous in U251 glioma cells (human (endogenous in U251)) (UniProt Q13895); assay: co-IP; U251 glioma cells, endogenous proteins; lysate immunoprecipitated with anti-BYSL antibody; Western blot
T2 sequence: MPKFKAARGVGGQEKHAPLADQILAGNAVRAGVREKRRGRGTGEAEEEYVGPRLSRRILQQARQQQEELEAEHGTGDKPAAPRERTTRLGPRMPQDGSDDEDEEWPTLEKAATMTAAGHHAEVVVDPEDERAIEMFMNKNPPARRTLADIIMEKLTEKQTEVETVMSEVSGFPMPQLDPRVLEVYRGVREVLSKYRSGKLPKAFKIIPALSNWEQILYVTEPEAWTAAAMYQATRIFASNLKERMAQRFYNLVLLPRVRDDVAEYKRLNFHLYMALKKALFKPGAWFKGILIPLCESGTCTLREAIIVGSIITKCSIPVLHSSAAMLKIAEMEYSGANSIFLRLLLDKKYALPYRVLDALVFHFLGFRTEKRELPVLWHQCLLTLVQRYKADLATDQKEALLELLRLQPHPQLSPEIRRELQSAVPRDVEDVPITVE

Myc-tagged RIOK2 (human) = Myc-tagged RIOK2 (human) (UniProt Q9BVS4); assay: co-IP; HEK293T cells transfected with Myc-RIOK2 plasmid; lysate immunoprecipitated with anti-Myc antibody; Western blot

“RIOK2, endogenous in HEK293T cells (from UniProt Q9BVS4-1 1-552)” was tested, and the binding [1] was “binds”.

With “RIOK2, endogenous in U251 glioma cells (from UniProt Q9BVS4-1 1-552)” the binding [2] was “binds”.

B1: BYSL (Bystin), endogenous in HEK293T cells (protein, UniProt Q13895 1-437)
chain: MPKFKAARGVGGQEKHAPLADQILAGNAVRAGVREKRRGRGTGEAEEEYVGPRLSRRILQQARQQQEELEAEHGTGDKPAAPRERTTRLGPRMPQDGSDDEDEEWPTLEKAATMTAAGHHAEVVVDPEDERAIEMFMNKNPPARRTLADIIMEKLTEKQTEVETVMSEVSGFPMPQLDPRVLEVYRGVREVLSKYRSGKLPKAFKIIPALSNWEQILYVTEPEAWTAAAMYQATRIFASNLKERMAQRFYNLVLLPRVRDDVAEYKRLNFHLYMALKKALFKPGAWFKGILIPLCESGTCTLREAIIVGSIITKCSIPVLHSSAAMLKIAEMEYSGANSIFLRLLLDKKYALPYRVLDALVFHFLGFRTEKRELPVLWHQCLLTLVQRYKADLATDQKEALLELLRLQPHPQLSPEIRRELQSAVPRDVEDVPITVE
B1 was tested, and the binding (Myc-tagged RIOK2 (human)) was “binds”.
